This passage reports binding results from paper PMC7338052.

Chains of the proteins cited; added tags and fusions are not shown.
UniProt P28482: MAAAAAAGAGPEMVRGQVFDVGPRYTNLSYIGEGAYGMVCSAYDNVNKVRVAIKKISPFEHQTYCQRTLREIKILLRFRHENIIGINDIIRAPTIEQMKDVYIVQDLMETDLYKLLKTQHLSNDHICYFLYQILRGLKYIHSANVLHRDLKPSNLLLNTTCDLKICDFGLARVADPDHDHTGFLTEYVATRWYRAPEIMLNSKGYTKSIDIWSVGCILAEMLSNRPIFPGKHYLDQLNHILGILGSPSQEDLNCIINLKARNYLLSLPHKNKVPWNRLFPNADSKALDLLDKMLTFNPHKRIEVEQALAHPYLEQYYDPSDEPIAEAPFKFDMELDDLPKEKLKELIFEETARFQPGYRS
UniProt O96017: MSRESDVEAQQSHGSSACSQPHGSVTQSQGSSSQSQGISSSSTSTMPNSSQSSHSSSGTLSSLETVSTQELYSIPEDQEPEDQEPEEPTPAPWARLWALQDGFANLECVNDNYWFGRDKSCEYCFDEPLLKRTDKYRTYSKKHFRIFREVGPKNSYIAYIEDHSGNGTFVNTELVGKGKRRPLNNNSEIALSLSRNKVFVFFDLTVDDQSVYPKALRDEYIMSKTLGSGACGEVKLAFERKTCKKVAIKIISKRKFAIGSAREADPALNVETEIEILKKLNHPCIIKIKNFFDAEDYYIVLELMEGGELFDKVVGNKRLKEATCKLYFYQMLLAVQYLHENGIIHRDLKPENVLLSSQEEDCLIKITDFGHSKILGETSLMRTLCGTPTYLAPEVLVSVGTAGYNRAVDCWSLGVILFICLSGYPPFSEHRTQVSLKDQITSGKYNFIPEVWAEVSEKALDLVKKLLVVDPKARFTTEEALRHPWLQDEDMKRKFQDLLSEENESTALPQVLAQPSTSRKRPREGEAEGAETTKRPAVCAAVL

The target of this test is FLAG-ERK2 (UniProt P28482). The test can be described thus: far-Western, overlay or dot blot; targets immunopurified, resolved by SDS-PAGE, transferred to PVDF, denatured and renatured in guanidine-HCl buffers; probe in 3% BSA in TBS/Tween 20 overnight at 4°C; fixed with 0.5% paraformaldehyde; bound probe detected by its tag; both purified.

No constants are given. Whether binding was seen depends on the method and setting. Some entries that bind do so weakly or less than the wild type.

For “V5-wtCHK2 (from UniProt O96017 1-543) (enzyme)”, the binding result is listed as “binds”.
